Experimental data published in article PMC8881512.
These are yes or no findings as the source states them, for the method shown. In cells and extracts the contact can be indirect. Here binding means that the protein was enriched with, or labelled near, the bait; the list need not be complete.

Target: TurboID conjugated with YAP, P46937
Test: proximity labelling; TurboID with mass spectrometry: MCF-7 cells stably expressing TurboID conjugated with VGLL3, YAP or TurboID-vector, 1 uM biotin for 10 min, lysis in RIPA buffer with sonication, streptavidin-conjugated magnetic beads, on-bead trypsin digestion
Conditions: remark: other sources report otherwise

B1: MED23, Q9ULK4 1-1368 (protein)
chain: METQLQSIFEEVVKTEVIEEAFPGMFMDTPEDEKTKLISCLGAFRQFWGGLSQESHEQCIQWIVKFIHGQHSPKRISFLYDCLAMAVETGLLPPRLVCESLINSDTLEWERTQLWALTFKLVRKIIGGVDYKGVRDLLKVILEKILTIPNTVSSAVVQQLLAAREVIAYILERNACLLPAYFAVTEIRKLYPEGKLPHWLLGNLVSDFVDTFRPTARINSICGRCSLLPVVNNSGAICNSWKLDPATLRFPLKGLLPYDKDLFEPQTALLRYVLEQPYSRDMVCNMLGLNKQHKQRCPVLEDQLVDLVVYAMERSETEEKFDDGGTSQLLWQHLSSQLIFFVLFQFASFPHMVLSLHQKLAGRGLIKGRDHLMWVLLQFISGSIQKNALADFLPVMKLFDLLYPEKEYIPVPDINKPQSTHAFAMTCIWIHLNRKAQNDNSKLQIPIPHSLRLHHEFLQQSLRNKSLQMNDYKIALLCNAYSTNSECFTLPMGALVETIYGNGIMRIPLPGTNCMASGSITPLPMNLLDSLTVHAKMSLIHSIATRVIKLAHAKSSVALAPALVETYSRLLVYMEIESLGIKGFISQLLPTVFKSHAWGILHTLLEMFSYRMHHIQPHYRVQLLSHLHTLAAVAQTNQNQLHLCVESTALRLITALGSSEVQPQFTRFLSDPKTVLSAESEELNRALILTLARATHVTDFFTGSDSIQGTWCKDILQTIMSFTPHNWASHTLSCFPGPLQAFFKQNNVPQESRFNLKKNVEEEYRKWKSMSNENDIITHFSMQGSPPLFLCLLWKMLLETDHINQIGYRVLERIGARALVAHVRTFADFLVYEFSTSAGGQQLNKCIEILNDMVWKYNIVTLDRLILCLAMRSHEGNEAQVCYFIIQLLLLKPNDFRNRVSDFVKENSPEHWLQNDWHTKHMNYHKKYPEKLYFEGLAEQVDPPVQIQSPYLPIYFGNVCLRFLPVFDIVIHRFLELLPVSKSLETLLDHLGGLYKFHDRPVTYLYNTLHYYEMHLRDRAFLKRKLVHAIIGSLKDNRPQGWCLSDTYLKCAMNAREENPWVPDDTYYCRLIGRLVDTMAGKSPGPFPNCDWRFNEFPNPAAHALHVTCVELMALAVSGKEVGNALLNVVLKSQPLVPRENITAWMNAIGLIITALPEPYWIVLHDRIVSVISSPSLTSETEWVGYPFRLFDFTACHQSYSEMSCSYTLALAHAVWHHSSIGQLSLIPKFLTEVLLPIVKTEFQLLYVYHLVGPFLQRFQQERTRCMIEIGVAFYDMLLNVDQCSTHLNYMDPICDFLYHMKYMFTGDSVKEQVEKIICNLKPALKLRLRFITHISKMEPAAVPPQAMNSGSPAPQSNQVPVSLPVTQ
For B1, the binding was “binds”.
